The text below walks through data of patent US12103939B2, “Solid pharmaceutical gold-based composition” (KING FAHD UNIVERSITY OF PETROLEUM AND MINERALS, priority 2019, dated 2024).

In one data set the test system is guanine. The data set can be described thus: Voltammetry, interaction with guanine. The conditions noted are these: 0.5 mM guanine, pH 6.8.
The nature of data set [1]: Voltammetry, interaction with tryptophan. The settings on record: 0.5 mM tryptophan, pH 6.8.

On to `Oc1ccc[n+]2c1-c1c(O)ccc[n+]1[Au-]2([Cl])[Cl].[Cl-]` [C1, [Au(BPYH)(Cl)2]Cl], for which the Voltammetry peak potential in the data set on guanine (CV, 10 μM complex) is on record as 0.9602 mV; in the data set with guanine (CV, 40 μM complex), 0.9824 mV; in the data set on guanine (CV, 100 μM complex) it was 1.0222 mV; with guanine (SWV, 10 μM complex) it was 0.9444 mV; in the data set on guanine (SWV, 40 μM complex) it was 0.9596 mV; in the data set on guanine (SWV, 100 μM complex), 0.9948 mV.

Consider `[Cl-].[Cl-].[Cl][Au-]1([Cl])[n+]2ccc[n+]3c2-c2[n+]1ccc[n+]2[Au-]3([Cl])[Cl]` [C5, [Au2(BPM)(Cl)4]Cl2], for which the Voltammetry peak potential came out at 0.7257 mV in data set [1] (CV, 10 μM complex); 0.7434 mV in data set [1] (CV, 40 μM complex); 0.7478 mV in data set [1] (CV, 100 μM complex); 0.7137 mV in data set [1] (SWV, 10 μM complex); 0.7388 mV in data set [1] (SWV, 40 μM complex); 0.7489 mV in data set [1] (SWV, 100 μM complex). For the same molecule, the Voltammetry peak potential is given as 0.9956 mV in the data set with guanine (CV, 10 μM complex); 1.0133 mV with guanine (CV, 40 μM complex); 1.0753 mV with guanine (CV, 100 μM complex); 0.9948 mV with guanine (SWV, 10 μM complex); 1.025 mV in the data set with guanine (SWV, 40 μM complex); 1.0502 mV with guanine (SWV, 100 μM complex).

Regarding `C[N+](C)=C1[S][Au-]2([S]1)[n+]1ccc[n+]3c1-c1[n+]2ccc[n+]1[Au-]31[S]C(=[N+](C)C)[S]1.[Cl-].[Cl-].[Cl-].[Cl-]` [C6, [Au2(BPM)(DMDTC)2]Cl4], the Voltammetry peak potential in data set [1] (CV, 10 μM complex) came to 0.7301 mV; in data set [1] (CV, 40 μM complex), 0.739 mV; in data set [1] (CV, 100 μM complex), 0.7434 mV; in data set [1] (SWV, 10 μM complex), 0.7187 mV; in data set [1] (SWV, 40 μM complex) it was 0.7237 mV; in data set [1] (SWV, 100 μM complex), 0.7288 mV.

Regarding `CC[N+](CC)=C1[S][Au-]2([S]1)[n+]1ccc[n+]3c1-c1[n+]2ccc[n+]1[Au-]31[S]C(=[N+](CC)CC)[S]1.[Cl-].[Cl-].[Cl-].[Cl-]` [C7, [Au2(BPM)(DEDTC)2]Cl4], the Voltammetry peak potential in data set [1] (CV, 10 μM complex) stood at 0.7257 mV; in data set [1] (CV, 40 μM complex) it was 0.7567 mV; in data set [1] (CV, 100 μM complex), 0.7832 mV; in data set [1] (SWV, 10 μM complex), 0.7137 mV; in data set [1] (SWV, 40 μM complex), 0.7288 mV; in data set [1] (SWV, 100 μM complex), 0.7338 mV.

Regarding `[Cl-].[Cl-].[Cl-].[Cl-].c1ccc(C[N+](Cc2ccccc2)=C2[S][Au-]3([S]2)[n+]2ccc[n+]4c2-c2[n+]3ccc[n+]2[Au-]42[S]C(=[N+](Cc3ccccc3)Cc3ccccc3)[S]2)cc1` [C8, [Au2(BPM)(DBDTC)2]Cl4], the Voltammetry peak potential in data set [1] (CV, 10 μM complex) stood at 0.7169 mV; in data set [1] (CV, 40 μM complex), 0.7213 mV; in data set [1] (CV, 100 μM complex), 0.7832 mV; in data set [1] (SWV, 10 μM complex) it was 0.7086 mV; in data set [1] (SWV, 40 μM complex) it was 0.7137 mV; in data set [1] (SWV, 100 μM complex) it was 0.7187 mV.
